The whole screen tested about 310,000 compounds, of which about 17,000 (5.5%) were called active. The shares of active, inactive and inconclusive entries below differ from those in the screen. Calls follow the shape of the dose curve; as a rule, active = well fitted inhibition curve with a large enough effect; inconclusive = small, poorly fitted or top-dose-only effect, or effect the other way; inactive = no such curve, though single readings can be large or run the other way. Potencies beside an inconclusive call are fits to weak or partial responses and may not hold up.
Target: Nuclear receptor ROR-gamma (Mus musculus) (UniProt P51450)
Test: qHTS for inhibitors of ROR gamma transcriptional activity; also: nearly all actives have a fitted effect of over 60% in size
Settings: Drosophila S2 Gal4-RORgamma UAS-luciferase reporter, 20 h; activity change, negative = inhibition: at 53.6 µM (top of the series)
Outline: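 Stable Schneider cell line, Gal4 DNA-binding domain fused to ROR gamma, UAS-luciferase. Cmpd 1 hr RT → CuSO4 700 uM final → 20 hr RT → luciferase reagent 10 min → luminescence.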
% is scaled to controls: 0 for no effect and ±100 for the full control effect; potency is read from the fitted curve at half-maximal effect.

By UniProt entry, the sequences of proteins in these tests, tags left out. Where a name states a change or a piece, a line headed by the entry shows the natural chain unless it says otherwise.
UniProt P51450: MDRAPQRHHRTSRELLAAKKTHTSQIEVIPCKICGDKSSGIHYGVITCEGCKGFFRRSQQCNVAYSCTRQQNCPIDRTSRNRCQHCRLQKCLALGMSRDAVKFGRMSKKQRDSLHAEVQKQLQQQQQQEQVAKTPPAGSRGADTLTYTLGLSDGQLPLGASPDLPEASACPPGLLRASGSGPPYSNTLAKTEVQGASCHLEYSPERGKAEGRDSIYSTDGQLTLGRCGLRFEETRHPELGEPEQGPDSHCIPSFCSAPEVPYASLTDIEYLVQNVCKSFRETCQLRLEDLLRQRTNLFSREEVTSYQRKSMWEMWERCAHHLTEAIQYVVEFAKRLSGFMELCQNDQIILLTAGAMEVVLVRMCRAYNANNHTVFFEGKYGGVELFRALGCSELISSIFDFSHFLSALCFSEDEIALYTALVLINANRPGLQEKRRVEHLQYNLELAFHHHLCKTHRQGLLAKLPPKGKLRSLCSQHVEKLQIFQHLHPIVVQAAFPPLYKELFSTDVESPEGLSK

Compound | activity change, negative = inhibition | Potency
CCOC(=O)N1CCN(C(=O)CSc2nnc(-c3ccccc3OC)o2)CC1 | inactive: 12.3% | 
CS(=O)(=O)N(CC(=O)N1CCN(Cc2ccc3c(c2)OCO3)CC1)C1CCCCC1 |  | inconclusive: 12.6 µM [activator, single point]
COc1ccc(S(=O)(=O)N2CCCC(C(=O)Nc3ccc(OC)c(OC)c3)C2)cc1 (centres undefined) |  | inconclusive: 10 µM [activator, partial curve, poor fit]
Nc1nc2sc3c(c2cc1C(=O)N1CCOCC1)CCCC3 |  | inconclusive: 4.47 µM [activator, partial curve]
CCOc1ccc(CC(=O)N/N=C(\C)c2cccnc2)cc1 |  | inconclusive: 11.2 µM [activator, partial curve]
COc1ccc(-c2ncc3ccccn23)cc1 | inactive: -37.2% | 
Cc1ccc2nc(SC(C)C(=O)N3CCOCC3)[nH]c2c1 (centres undefined) |  | inconclusive: 22.4 µM [inhibitor, single point]
COc1cccc(OCCCn2cc(/C=C3/C(=N)N4C=C(C)SC4=NC3=O)c3ccccc32)c1 |  | active: 2.24 µM
COc1cc(C)c(CNc2ccc(OC)c(OC)c2)cc1C | inactive: -12.9% | 
CC(=O)C(Sc1ccc2nnc(-c3ccc(C)cc3)n2n1)C(C)=O |  | inconclusive: 20 µM [inhibitor, partial curve, poor fit]
O=c1c(-c2ccc(Br)cc2)coc2c(CN3CCCCC3)c(O)ccc12 | inactive: -17.8% | 
CCCOc1cccc(C(=O)N/N=C/c2ccoc2)c1 |  | inconclusive: 35.5 µM [inhibitor, single point]
COC(=O)c1ccc(NC(=O)C23CCC(C)(C(=O)O2)C3(C)C)cc1 (centres undefined) |  | inconclusive: 17.8 µM [activator, partial curve]
Cc1ccc(OCCn2cnc3sc(C(N)=O)c(C)c3c2=O)cc1 |  | inconclusive: 7.08 µM [activator, full curve, poor fit]
O=C(Nc1ccc(NC(=O)c2ccc(Cl)cc2Cl)cc1)c1cccs1 | inactive: -26.6% | 
COc1ccc(-c2nc3cnc(OC)nc3n(C3CC3)c2=O)cc1 | inactive: -2.93% | 
CC(=O)Nc1ccc(S(=O)(=O)Nc2ccc3c(c2)CCC3)cc1 |  | inconclusive: 12.6 µM [activator, single point]
CC(C)CC(=O)NC(=S)NCCc1ccccc1 |  | active: 1.78 µM
CC(C)=CCCC(C)CN1CCC(N2CCC(C(=O)N3CCCC3)CC2)CC1 (centres undefined) |  | inconclusive: 8.91 µM [activator, partial curve]
COC(=O)/C(=C(O)\C=C\c1ccccc1[N+](=O)[O-])c1nc2ccccc2[nH]1 |  | active: 7.94 µM
NS(=O)(=O)c1ccc(NC(=S)N2CCN(c3ccccc3Cl)CC2)cc1 |  | inconclusive: 28.2 µM [activator, single point]
O=S(=O)(c1ccccc1)N(Cc1ccccc1)c1ccccn1 | inactive: 22.2% | 
Cc1cccc(OCc2n[nH]c(=S)n2-c2ccccc2)c1 |  | active: 2.24 µM
Cc1ccc(/C(N)=N/OC(=O)CCC2CCCCC2)cc1 | inactive: 29.8% | 
Cc1ccc(NC(=O)C2=C(O)c3ccccc3N(C)S2(=O)=O)cc1 |  | inconclusive: 11.2 µM [activator, single point]
COc1ccc([N+](=O)[O-])cc1NC(=O)COC(=O)Cc1cc(OC)c(OC)c(OC)c1 | inactive: 0.133% | 
Cc1ccc(C(=O)Nc2cccnc2)cc1S(=O)(=O)N1CCCCCC1 | inactive: 44.3% | 

Compound | activity change, negative = inhibition | Potency
CCOC(=O)C(CC)Sc1cc(C)nc2ccc(OC)cc12 (centres undefined) |  | inconclusive: 15.8 µM [inhibitor, partial curve]
S=C(Nc1ccc(Cl)cc1)NC1CCCCC1 |  | active: 3.55 µM
N#Cc1c(N2CCOCC2)nsc1-c1ccc(C(F)(F)F)cc1 |  | inconclusive: 20 µM [activator, single point]
COc1ccc(CNc2ncnc3cc(OC)c(OC)cc23)cc1 |  | inconclusive: 8.91 µM [activator, partial curve]
CCCc1c(C)nn(C(=O)/C(C#N)=N/Nc2ccccc2[N+](=O)[O-])c1C | inactive: -29.8% | 
CN1CCN(C(c2ccc(C(F)(F)F)cc2)c2cc(Cl)c3cccnc3c2O)CC1 (centres undefined) |  | active: 0.398 µM
C=CCOc1ccc(/C=N/NC(C)=O)cc1OCC | inactive: -10% | 
O=C(Nc1nnc(-c2ccccc2)o1)c1cc(Cl)sc1Cl |  | active: 2.24 µM
CN(C)C(CNC(=O)c1coc2ccccc2c1=O)c1ccccc1 (centres undefined) |  | inconclusive: 12.6 µM [inhibitor, single point]
Cc1nc(NC(=O)CN2CCC(O)(c3ccc(F)cc3)CC2)sc1C | inactive: 14.9% | 
Cc1nc(CCN2C(=O)c3ccccc3C2=O)cs1 |  | inconclusive: 11.2 µM [activator, partial curve]
O=C(O)c1nc(-c2ccccc2)n(-c2ccccc2)n1 | inactive: 24.4% | 
Cc1ccc(S(=O)(=O)c2cnc3cc(C)nn3c2N)cc1 |  | inconclusive: 22.4 µM [inhibitor, single point]
S=C(Nc1ccc(Cl)c(Cl)c1)NC1CCCCC1 |  | active: 2.51 µM
S=c1[nH]nc(COc2ccccc2)n1/N=C/c1ccc(Cl)c(Cl)c1 |  | inconclusive: 3.55 µM [inhibitor, partial curve]
Cc1nc(-c2cccc(NC(=O)Cc3ccccc3)c2)cs1 |  | inconclusive: 2 µM [activator, full curve]
COC(=O)c1sccc1NC(=O)c1ccc(OC)cc1 | inactive: -32.2% | 
Cc1ccsc1/C=N\NC(=O)c1n[nH]c2c1CCC2 |  | active: 3.98 µM
CCOc1ccccc1NS(=O)(=O)c1ccc(Br)s1 |  | inconclusive: 14.1 µM [activator, single point]
C=CCNC(=S)Nc1c(C(=O)OC)[nH]c2cc(OC)ccc12 |  | active: 2.82 µM
COc1ccc(Nc2c(-c3ccco3)nc3ccc(C)cn23)cc1 |  | active: 17.8 µM
COc1ccc(S(=O)(=O)n2nc(-n3c(C)ccc3C)c3c(F)cccc32)cc1OC |  | inconclusive: 1.12 µM [activator, full curve, poor fit]
CCC(=O)Oc1ccc2oc(=O)cc(C)c2c1 |  | inconclusive: 14.1 µM [activator, single point]
CC(=O)NCCC(=O)Nc1nc(-c2ccc3c(c2)OCCO3)cs1 | inactive: 9.31% | 
N#CC1=C(S)N(c2ccc(F)cc2)C(c2ccco2)NC1=O (centres undefined) |  | inconclusive: 35.5 µM [inhibitor, single point]
CCOC(=O)c1ccc2nc(NC(=O)C(C)C)sc2c1 | inactive: -3.55% | 
O=C(O)CN1C(=O)/C(=C\c2cccc(OCc3ccccc3F)c2)SC1=S |  | inconclusive: 31.6 µM [activator, single point]

Compound | activity change, negative = inhibition | Potency
CCOc1ccc(Cl)cc1S(=O)(=O)NCc1ccccn1 |  | inconclusive: 15.8 µM [inhibitor, single point]
CCN(CC)CC#CCC(O)(c1ccccc1)c1ccccc1 | inactive: -8.57% | 
O=[N+]([O-])c1cc(/C=N/N2CCN(Cc3ccccc3)CC2)ccc1Cl |  | inconclusive: 22.4 µM [activator, single point]
CCCCNC(=S)NC(=O)c1ccc([N+](=O)[O-])cc1 |  | active: 4.47 µM
O=C(Cn1cccn1)N1CCCC(Nc2ccc(F)c(F)c2)C1 (centres undefined) | inactive: -22.8% | 
C/C(=N/NC(=S)Nc1cccc(C)c1)c1cccc([N+](=O)[O-])c1 |  | active: 2.82 µM
CCC[C@@H]1C[C@@]1(CCC)[C@@H](NC(=O)c1ccccc1)c1ccc(C(=O)OC)cc1 |  | inconclusive: 14.1 µM [activator, single point]
Cc1ccc(/C=C/C(=O)N2CCN(S(=O)(=O)c3c(C)c(C)cc(C)c3C)CC2)o1 |  | inconclusive: 11.2 µM [activator, partial curve, poor fit]
NNC(=O)c1cc(-c2ccc(O)cc2)nc2ccc(Br)cc12 |  | active: 12.6 µM
Cc1ccc(-n2c(SCC(=O)Nc3ccc4c5c(cccc35)CC4)nc(O)c(C)c2=O)cc1 |  | inconclusive: 11.2 µM [activator, single point]
Cc1ccc(CC(=O)Nc2nc3ccccc3s2)cc1 | inactive: -14.5% | 
CCC(C)C(=O)Nc1ccc(S(=O)(=O)Nc2nccs2)cc1 (centres undefined) | inactive: 17.6% | 
CC(C)C(NC(=O)c1ccccc1F)C(=O)NCc1ccccc1 (centres undefined) | inactive: -17.2% | 
C=C1C(=O)O[C@@H]2[C@H]3O[C@]3(C)CCC=C(C)CC[C@@H]12 |  | active: 7.08 µM
COc1cccc(N2CCN(Cc3nc(N)nc(N4CCCc5ccccc54)n3)CC2)c1 |  | inconclusive: 1.12 µM [inhibitor, full curve]
O=C(O)c1cccc(Nc2ncnc3ccc(Br)cc23)c1 |  | inconclusive: 11.2 µM [activator, partial curve]
O=C(NCc1ccccc1)c1cc(S(=O)(=O)N2CCCCC2)ccc1N1CCOCC1 | inactive: 5.85% | 
Cc1ccc(CC2CC(=O)N(CCc3ccccc3)C2=O)cc1 (centres undefined) | inactive: 3.64% | 
CC(NC(=O)c1cc(-c2ccccc2)on1)c1ccccc1 (centres undefined) |  | inconclusive: 12.6 µM [activator, single point]
CCCCCCOc1ccc(/C=c2\s/c(=C(/C#N)C(=O)NCc3ccco3)n(-c3ccccc3)c2=O)cc1 | inactive: 10.7% | 
Cc1ccsc1/C=N/NC(=S)NCc1ccccc1 |  | active: 0.0224 µM
Cc1noc(C)c1C(=O)Nc1ccccn1 |  | inconclusive: 1.41 µM [inhibitor, partial curve, poor fit]
CCCC1(c2ccccc2)NC(=O)N(CC(=O)Nc2cc(S(=O)(=O)N3CCOCC3)ccc2Cl)C1=O (centres undefined) |  | inconclusive: 5.62 µM [activator, single point]
CCN(CC)c1ccc(/C=N/NC(=O)Nc2ccccc2)cc1 |  | inconclusive: 11.2 µM [activator, single point]
COc1ccc(-c2c(C3C4C=CCC(C)C4C(=O)N3Cc3ccccc3)ccc3ccccc23)cc1 (centres undefined) | inactive: 40.9% | 

Molecules from the list above that have a furan ring, fused or not, in the order listed:
Compound | activity change, negative = inhibition | Potency
CCCOc1cccc(C(=O)N/N=C/c2ccoc2)c1 |  | inconclusive: 35.5 µM [inhibitor, single point]
COc1ccc(Nc2c(-c3ccco3)nc3ccc(C)cn23)cc1 |  | active: 17.8 µM
N#CC1=C(S)N(c2ccc(F)cc2)C(c2ccco2)NC1=O (centres undefined) |  | inconclusive: 35.5 µM [inhibitor, single point]
Cc1ccc(/C=C/C(=O)N2CCN(S(=O)(=O)c3c(C)c(C)cc(C)c3C)CC2)o1 |  | inconclusive: 11.2 µM [activator, partial curve, poor fit]
CCCCCCOc1ccc(/C=c2\s/c(=C(/C#N)C(=O)NCc3ccco3)n(-c3ccccc3)c2=O)cc1 | inactive: 10.7% | 

From PubChem BioAssay AID2551 (National Center for Advancing Translational Sciences (NCATS), 2010)
